From patent publication US8552041B2, “Therapeutic approaches for treating alzheimer disease and related disorders through a modulation of cell stress response” (Pharnext, priority 2008, dated 2013)
At least one structure is not confirmed: it was looked up by name or label, or the drawing left a doubt.

How the values were obtained:
[1] = system: NGF-differentiated PC12; assay: MTT viability of NGF-differentiated PC12 cells after Abeta25-35 intoxication; type: cell-based, Rat; settings: Abeta25-35 10 μM, 24 h; drug pre-incubated 1 h; FIG. 1
Method: PC12 (Pheochromocytoma Rat, ATCC ref: CRL-1721) cells from [NT] CRL-1721) were rapidly thawed in 37° C. water. The supernatant was immediately put in 9 ml of a “PC12 proliferation medium” containing Dulbecco's modified Eagle's medium DMEM-F12 (Pan Biotech ref: P04-41450) with 15% heat-inactivated horse serum (Invitrogen ref: 16050-130), 2.5% of fetal bovine serum (FBS; Invitrogen ref: 16000-036), 1% of Penicillin 10.000 U/ml and Streptomycin 10 mg/ml (PS; Pan Biotech ref: P06-07100) and 1% de L-glutamine 200 mM (Pan Biotech ref: P04-80100). Cells were centrifuged (800 rounds/min, 4° C. for 5 min) and added in 5 ml “PC12 proliferation medium”, viable cells were counted with a Malassez cell using the neutral red exclusion test (Sigma). Then the cells were seeded at 3·10^4 cells per cm^2 in “PC12 proliferation medium” in 75 cm^2 plastic flasks (Greiner Ref: 658175) precoated with poly-L-lysine (10 μg/ml, Sigma Ref: P2636). Medium was changed every other day. After 3 days of culture, when cells reached 80% of confluence, they were washed in HBSS without calcium and magnesium (Pan Biotech Ref: P06-33500) and incubated in trypsin EDTA, (0.05%, Pan Biotech Ref: P10-023100). The enzymatic reaction was stopped with PC12 proliferation medium added by 0.5 mg/ml of DNAse 1 grade 2 (Pan Biotech Ref: T60-37780100). […]

[2] = system: rat primary cortical neuron cells; assay: LDH release in human Aβ1-42 intoxicated rat primary cortical neuron culture; type: cell-based; settings: single drugs, Aβ1-42 10 μM, 24 h, Table 4, listed as Tadafil
Method: Primary rat cortical neurons are cultured as described previously.
The control medium was prepared in the same conditions.
Cortical neurons were intoxicated for 24 hours. Three separate cultures were performed per condition, 6 wells per condition.
This colorimetric assay for the quantification of cell toxicity is based on the measurement of lactate dehydrogenase (LDH) activity released from the cytosol of dying cells into the supernatant.
All values are expressed as mean±s.e.mean of the 3 cultures (n=6 per condition).

| SMILES | Prevention of Abeta25-35 intoxication, viability of NGF-differentiated PC12 (MTT) [1] | Protective effect on Aβ1-42 toxicity in neuronal cells [2] |
| --- | --- | --- |
| CCOC(=O)C1=C(COCCN)NC(C)=C(C(=O)OC)C1c1ccccc1Cl (centres unmarked) [Amlodipine] | significantly prevented |  |
| CN1CC(=O)N2[C@H](c3ccc4c(c3)OCO4)c3[nH]c4ccccc4c3C[C@@H]2C1=O [Tadalafil] |  | particularly pronounced effect |
